Assay results as given in PubChem BioAssay AID1508600 (Functional Genomics Laboratory (NCATS/FGL), 2020).
Out of some 53,000 sequences screened, about 3,700 (7%) were called active.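 Rule for the calls: active = gene knockdowns whose robust z-score for IL-1 alpha signal is at least 2 or at most -2, so actives lie on both sides; inactive = the rest.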 This is one part of the list.

Assay: Components of the Cytosolic LPS Sensing Pathway: Gene Identification via Genome-wide siRNA Screen;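 note: robust z of the log signal after scaling to non-targeting control siRNA wells of the plate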
Conditions: RAW264.7 macrophages, IL-1a HTRF, actives lie on both sides, screened at 100 nM (by protocol), cells primed 5 h with Pam3CSK4 first
Outline: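 Cells (RAW264.7, 1×10^4 per well) were transfected with siRNA at 100 nM and cultured 48h at 37 degrees C. Pam3CSK4 was added for 5 hours; LipidA transfection followed for 24 hour. IL-1a was then measured by HTRF.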

Row | Sequence | z-score
1 | CCCUCACAGUAACCUGUCGTT against Espl1 | active: -2.56
2 | GGGUGCAAGUCGUUUCUCUTT against Uggt1 | inactive: -1.89
3 | GGAAGGAAACAGAAAAGUATT against Gen1 | inactive: -0.835
4 | GCCUGUACAUCAUGCGUGUTT against Rprm | inactive: -0.00211
5 | GGAAAGAUUUUCAUUUGAGTT against Zmat1 | inactive: 0.348
6 | GCAUUACCUGUAGUCUAUGTT against Itln1 | inactive: 1.34
7 | GGAGUAUGCGUACCUGAAGTT against Nr0b2 | inactive: -0.903
8 | GGAACCAUAAAUGUCACUUTT against Mgat4c | inactive: 0.273
9 | GGACCUAAGGGAUCUAUUGTT against Col5a3 | inactive: 0.000962
10 | CCUCUAGCUCCUAACCAUUTT against 6030498E09Rik | inactive: -1.18
11 | CCUAUACCCUGGAAAGGCATT against Pigz | inactive: 1.59
12 | GCCGCUUGGAGGAUAUCUATT against Wdr91 | inactive: -1.95
13 | GGGUCAAUCUAAAUAUGUGTT against Apoo | inactive: 1.53
14 | CCUGAUGUGAAGAAAUCAATT against Akap10 | inactive: 0.851
15 | GGAAGUUUUGAUCACGAUUTT against Terb1 | inactive: 0.97
16 | GCCAAAAACGGGCAUAUUGTT against Fech | inactive: -1.12
17 | GGCUUCUUUUUAAAAGUAGTT against Pcid2 | inactive: -1.28
18 | GGAGAGAUGUAGAAUAUGGTT against Marchf2 | inactive: 0.502
19 | GGAGAGACCACCUUUUGCUTT against AI837181 | inactive: 0.596
20 | GGAACUUAUAUCUGCGCCATT against Gprin3 | inactive: 0.868
21 | GGAAAUGAGUGAAGAUGAATT against Cdk11b | inactive: -0.186
22 | GCCGAAGAGGACAUCAUUGTT against Auts2 | inactive: 1.46
23 | GGUCAAAUAGGGAACCUAGTT against Gm4827 | inactive: 0.752

Row | Sequence | z-score
24 | GGAAGAGUGUCUAAAUGUATT against Cbwd1 | inactive: 0.849
25 | GGCUGUGGGUCUAUUCUACTT against Kdm8 | inactive: 0.288
26 | GGAGAACUGUCAGAACGAGTT against Gpx2 | inactive: -1.56
27 | GGAAUGGAGAGAUCAGUAGTT against Cox7b | inactive: 0.45
28 | GGUAUUUCACAAUCUUCUCTT against Pmpca | inactive: -0.684
29 | GGCAGACCGUGUUAAAAUGTT against Dnajc2 | inactive: -0.481
30 | GGAGUUCUCGGACUUUCUGTT against C87436 | inactive: 0.179
31 | GCCAUGCUAGUUUGAUACCTT against Bmp4 | inactive: -0.164
32 | GGGAUUUUUCCCUUAAUUCTT against Smad4 | inactive: 0.00716
33 | GUCCCUCUUUCUAUGGAGGTT against Krtap19-9b | inactive: 0.703
34 | GGCUGUUGUGGAUUUUCUCTT against Olfr698 | inactive: -1.12
35 | GGAAGAAUUCGAAAAUGUGTT against Efhb | inactive: -0.427
36 | GGACAAUAAUGACAACAAATT against Tnrc6b | inactive: 0.883
37 | UCUCUGUUCUGUAUACAGUTT against Olfr1414 | inactive: 0.884
38 | GGAAAAAGCCAGGCCUUUUTT against Ptbp3 | inactive: -0.919
39 | GGAGUGAAAUAUGGAGUUGTT against Dhrs7b | inactive: 0.787
40 | GGAGAUGCCUUCCAGAUUCTT against Pcdh12 | inactive: 1.69
41 | GGUCUUCUCUACCUGCUCCTT against Olfr796 | inactive: 1.06
42 | GGAAACUAAUUUCAAGCCUTT against Hat1 | inactive: 1.19
43 | GGCAAAAGAUAUAAGCGGUTT against Mbd3l2 | inactive: -0.625
44 | GGAGCUGAAAUCCUUUGUUTT against Dnttip1 | inactive: -0.242
45 | GGACUUUUGUGUAUAGUUATT against Smad1 | inactive: 1.59
46 | CCACCCACUAAACCUAAAUTT against Pcolce | inactive: 0.136

Part of the list above in a different format.
Row	Sequence	z-score
24	GGAAGAGUGUCUAAAUGUATT against Cbwd1	inactive: 0.849
29	GGCAGACCGUGUUAAAAUGTT against Dnajc2	inactive: -0.481
33	GUCCCUCUUUCUAUGGAGGTT against Krtap19-9b	inactive: 0.703

(cont.)

Row | Sequence | z-score
47 | GGUUUUGGAUUUGUGACUATT against Elavl2 | inactive: -0.993
48 | GGAUAAGACUGUUGUCAGATT against Prl8a6 | inactive: 0.759
49 | GGACUUGUCUUUGACACGCTT against Nt5c2 | inactive: 0.0523
50 | GGAAAUGCUUCUGAGCUAGTT against Desi2 | inactive: 1.71
51 | GCCGAACGUGUUUAAACUCTT against Psd3 | inactive: 0.0404
52 | CGACCAUACGAAUGCGGCATT against Zfp865 | inactive: 0.498
53 | CCGCUUUUGGAACUAUGAGTT against Stard3nl | inactive: -0.64
54 | GGUCCUUUUUUCAACCAGCTT against Sh3gl1 | inactive: -0.259
55 | CGAGGAGCUAGCUGUAAAUTT against Gsc | inactive: 0.603
56 | CCAGAAUGGCGGGUAUUUGTT against Fbln5 | active: 2.14
57 | CCUUAGGAUUUGAACGCGUTT against Cutc | inactive: -0.554
58 | GGAGUUUUUGUGAGACAAATT against Fam210b | inactive: -0.661
59 | GGUACAAUGGCACUGUCACTT against Chrna5 | inactive: -1.29
60 | GGUUUUGGCGGAUACUAAGTT against Plin3 | inactive: -0.24
61 | GCGGAUUGUCUUCCUAGACTT against Smg9 | inactive: -1.14
62 | GCGAUGCACUGUGUAAACUTT against Ccr6 | inactive: 0.772
63 | GGAAUACGGAAUCAUGGUUTT against Ift52 | inactive: -0.0653
64 | GGCUGCACAUCUGAGUACCTT against Itgb2l | inactive: -1.62
65 | CCUACUUGCAGAUUGUUUUTT against Rapgef6 | inactive: 0.484
66 | GGAACUGCCUGAAAAAAUGTT against Dcn | active: -2.76
67 | CGGCAUUCAGAUUGUCUCUTT against Nup210 | inactive: -1.22
68 | GGCAGAAUUUCAGCAACCUTT against Asgr1 | inactive: -1.32
